Laboratory results as given in US9024055B2, “Acetaminophen conjugates, compositions and methods of use thereof” (Acorda Therapeutics, Inc., priority 2011, dated 2015).
Some entries share one result that the patent states for a list of compounds.

Test: Solubility in phosphate-buffered saline (pH 7.2) at room temperature (Example 18)
Conditions: compared with acetaminophen

CC(=O)Nc1ccc(OC(=O)SCCS(=O)(=O)[O-])cc1.[Na+] [Test Article A, Sodium 2-((4-acetamidophenoxy)carbonylthio)ethanesulfonate]
Aqueous solubility relative to acetaminophen: up to 30 fold
